Source: PubChem BioAssay AID1471 (National Center for Advancing Translational Sciences (NCATS), 2008)
“And” between values parts separate entries of the source, which are not always exact repeats. Identical values can stand only once. Out of some 230,000 compounds screened, about 310 (0.13%) were called active. The inconclusive results got no clear call from the source; some entries with a clear call stand among them for comparison. Calls follow the shape of the dose curve; as a rule, active = well fitted activation curve with a large enough effect; inconclusive = small, poorly fitted or top-dose-only effect; inactive = no such curve, though single readings can be large or run the other way. Potencies of inconclusive entries are doubtful fits and often do not repeat.

Assay: qHTS Multiplex Assay to Identify Dual Action Probes in a Cell Model of Huntington: Cytoprotection (ATP); also: nearly all actives have a fitted effect of over 45% in size;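 as to cytoprotection (ATP increase): toxic huntingtin expression switched on by the ecdysone agonist tebufenozide; % of control where 0% means no effect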
Details: PC12 HTT-Q103 induced, ATP luminescence, 40 h; cytoprotection (ATP increase): at 56.4 µM (top of the series) unless noted
Summary of the method: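 Rat PC12, Q103 Htt exon1-GFP fusion, ecdysone promoter; tebufenozide inducer 100 nM final; compound titration; qHTS, 1500 cells/well; ATPlite luminescent read.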
Potency is read from the fitted curve at half-maximal effect.

| SMILES | cytoprotection (ATP increase) | Potency |
| --- | --- | --- |
| CN(C)CCCN(C(=O)CCc1ccccc1)c1nc2ccc(Cl)cc2s1 | inactive: 4.78% [at 10 µM] | – |
| COc1ccc2nc(C)cc(SCC(=O)NNC(=O)COc3ccccc3)c2c1 | – | inconclusive: 20 µM [activator, single point] |
| Cc1nc2[nH]c(=O)[nH]c(=O)c2[nH]1 | – | inconclusive: 3.98 µM [activator, full curve, poor fit] |
| O=C(O)c1cccc(N2C(=O)/C(=C/c3ccc([N+](=O)[O-])cc3)C=C2c2ccccc2)c1 | – | inconclusive: 10 µM [activator, single point] |
| Cc1ccc(C(=O)OCC(=O)c2c[nH]c3ccccc23)cc1S(=O)(=O)N1CCCCC1 | – | inconclusive: 3.16 µM [activator, single point] |
| O=C(CSc1nnc(-c2ccco2)n1Cc1ccco1)NCc1ccccc1 | inactive: 6.92% | – |
| CS(=O)(=O)N1CCc2cc(-c3csc(NC(=O)Cc4ccccc4)n3)ccc21 | inactive: -21.2% [at 10 µM] | – |
| CN1C[C@@H]2C(c3ccc(Cl)nc3)C3(c4cccnc4)CC2(C3)[C@H]1c1ccccc1 (stereo partly drawn) | – | inactive |
| CCN1CCN(C(=O)c2ccc(Cn3c(=O)[nH]c4cc(OC)c(OC)cc4c3=O)cc2)CC1 | – | inconclusive: 3.16 µM [activator, single point] |
| Cc1ccc(C(=O)C(C)OC(=O)c2n[nH]c(=O)c3ccccc23)cc1 (stereo not drawn) | inactive: 5.34% | – |
| COc1cc(NS(=O)(=O)c2ccc(NC(=S)NC(=O)c3cccs3)cc2)nc(OC)n1 | inactive: -6.45% [at 10 µM] | – |
| Brc1ccc(-c2nc(-c3ccncc3)no2)o1 | inactive: -26.2% [at 0.074 µM] | – |
| COc1ccccc1-c1cncnc1NCc1cccs1 | – | inconclusive: 15.8 µM [activator, partial curve] |
| CC/C(=N\NC(=S)Nc1cc(C)ccc1C)c1ccc(OC(F)F)cc1 | – | inconclusive: 2.24 µM [activator, single point] |
| CN(Cc1nc(-c2cnccn2)no1)CC(O)c1ccccc1 (stereo not drawn) | – | inconclusive: 1.41 µM [activator, full curve, poor fit] |
| CCn1c(-c2ccccc2SC)n[nH]c1=S | inactive: -4.14% [at 10 µM] | – |
| Cc1ccc(NC(=S)N/N=C/c2c(C)nn(-c3ccccc3)c2N2CCCC2)cc1 | inactive: 3.13% [at 10 µM] | – |
| O=C(NCCN1CCN(c2ccccc2)CC1)c1ccc2c(c1)[nH]c(=S)n1c3ccccc3nc21 | inactive: -26% | – |
| O=C(CSc1nc2ncccc2[nH]1)c1ccc(F)cc1 | inactive: 2.77% | – |
| O=C(Nc1ccc2c(c1)OCO2)N1CCN(Cc2ccco2)CC1 | inactive: -93.4% [at 10 µM] | – |
| CC(/C=C/c1ccccc1)=N\NC(N)=S | – | inconclusive: 0.0891 µM [activator, full curve, poor fit] |
| COc1ccc(-c2cc3nc4c(c(N5CCC6(CC5)OCCO6)n3n2)CCC4)cc1 | – | inconclusive: 2.82 µM [activator, partial curve] |
| CS(=O)(=O)Nc1cccc(-c2ccc3ncnc(NCc4cccs4)c3c2)c1 | inactive: -171% | – |

| SMILES | cytoprotection (ATP increase) | Potency |
| --- | --- | --- |
| CC(=O)c1ccc(NC2=C(N3CCOCC3)C(=O)c3ccccc3C2=O)cc1 | inactive: -46.6% | – |
| CCOc1ccc2c(c1)[nH]c(=S)n2C | inactive: -2.77% [at 10 µM] | – |
| CSc1nc(N(C)NC(=O)c2ccc(F)cc2)c2ccccc2n1 | inactive: -33.4% [at 10 µM] | – |
| COc1ccccc1OCC(O)CN1CCN(CC(=O)Nc2c(C)cccc2C)CC1 (stereo not drawn) | – | inconclusive: 0.891 µM [activator, single point] |
| O=C(c1cc(C(F)(F)F)cc(C(F)(F)F)c1)N1CCC[C@@]2(CCN(Cc3nccs3)C2)C1 | – | inconclusive: 2.51 µM [activator, full curve] |
| CC(C)C[C@H](NC(=O)[C@@H](O)[C@@H](N)Cc1ccccc1)C(=O)O | – | inconclusive: 0.0032 µM [activator, full curve, poor fit] |
| NC(=O)c1ccccc1NC(=O)Nc1ccccc1Cl | – | inconclusive: 35.5 µM [activator, partial curve, poor fit] |
| O=S(=O)(Nc1ccccc1)c1ccc(Oc2ncc(C(F)(F)F)cc2Cl)cc1 | – | inconclusive: 6.31 µM [activator, single point] |
| NC(=O)Cn1c(S(=O)(=O)Cc2ccccc2)nc2ccccc21 | – | inconclusive: 20 µM [activator, partial curve] |
| CC1(C)Cc2nc3oc4c(NCCCN5CCOCC5)ncnc4c3cc2CO1 | inactive: 9.94% [at 10 µM] | – |
| CN(C)c1ccc(C(c2nnnn2C(C)(C)C)N2CCc3ccccc3C2)cc1 (stereo not drawn) | inactive: -1.59% [at 10 µM] | – |
| CCN(CC)C(=O)Cc1cn(C)c2ccccc12 | – | inconclusive: 14.1 µM [activator, single point] |
| O=C(CN1CCOCC1)Nc1ncc(Cc2cccc(Cl)c2)s1 | – | inconclusive: 3.98 µM [activator, single point] |
| N#Cc1cc(N)c(Nc2ccccc2)cc1C#N | – | inconclusive: 0.0794 µM [activator, full curve, poor fit] |
| COC(=O)[C@@]1(Cc2ccc(F)cc2)[C@@H]2C(=CC(=O)[C@H]2CC(=O)C(=O)N(C)C)CN1C(=O)c1ccccc1 | – | active: 3.98 µM |
| Cc1sc(NC(=S)NC(=O)c2ccco2)c(C(N)=O)c1C | inactive: -85.8% | – |
| NC1(C(=O)O)C[C@H](C(=O)O)[C@H](C(=O)O)C1 (stereo partly drawn) | – | inconclusive: 0.316 µM [activator, full curve] |
| O=C(CSC1CCCCC1)Nc1ccccc1Br | – | inconclusive: 1.12 µM [activator, single point] |
| O=C(O)/C=C/C(=O)N(Cc1ccc2c(c1)OCO2)C1CC(=O)N(CCc2ccccc2)C1=O (stereo not drawn) | inactive: -13.5% [at 10 µM] | – |
| Cc1ccccc1-n1c(SCC(=O)c2c(N)n(C)c(=O)n(C)c2=O)nc2sc3c(c2c1=O)CCCC3 | inactive: 1.07% [at 1.9 µM] | – |
| Nc1ccccc1NC1CCCCC1 | – | inconclusive: 11.2 µM [activator, single point] |
| CCC(C)NC(=O)Nc1ccc2c(c1)N(C)C(=O)c1ccccc1S2 (stereo not drawn) | – | inconclusive: 1.26 µM [activator, single point] |
| O=Cc1ccc(OCC(=O)NC(=O)NC2CCCCC2)cc1 | – | inconclusive: 1.26 µM [activator, single point] |

| SMILES | cytoprotection (ATP increase) | Potency |
| --- | --- | --- |
| ClC(Cl)(c1nnnn1-c1ccccc1)c1nnnn1-c1ccccc1 | inactive: 16.7% [at 10 µM] | – |
| CCn1c(C)cc(/C=C2/NC(=O)N(c3ccccc3)C2=O)c1C | inactive: -34.4% | – |
| C=CC1=C2C=C(C3CC3)N(CC(C)C)C=C2C(=O)C(C)(OC(=O)c2ccco2)C1=O (stereo not drawn) | inactive: -19.6% [at 10 µM] | – |
| C(=N\Nc1nc2ccccc2[nH]1)/c1ccccc1 | – | inconclusive: 3.98 µM [activator, partial curve] |
| Cc1oc(C(C)(C)C)cc1C(=O)Nc1cccc(/C=C\C(=O)O)c1 | – | inconclusive: 0.355 µM [activator, partial curve, poor fit] |
| Cc1ccc(/C=C2/SC(=S)N(CC(=O)Nc3ncc(Cc4ccc(C)cc4)s3)C2=O)cc1 | – | inconclusive: 3.98 µM [activator, single point] |
| O=C(NNC1=NCCC1)C1CC1 | – | inconclusive: 5.01 µM [activator, single point] |
| CCOC(=O)C1C(=O)C=C(c2ccc([N+](=O)[O-])cc2)CC1c1ccccc1 (stereo not drawn) | inactive: -2.72% [at 10 µM] | – |
| CCCNC(=O)CSc1nc2[nH]ncc2c(=O)[nH]1 | – | inconclusive: 0.708 µM [activator, partial curve] |
| COc1cccc(OC)c1C(=O)OCC(=O)Nc1cccnc1Cl | – | inconclusive: 5.62 µM [activator, single point] |
| COc1ccc(C(=O)N2CCC3(CCN(Cc4ccccc4)CC3)CC2)cc1 | – | inconclusive: 35.5 µM [activator, single point] |
| Cn1c(=O)c(-c2cccs2)nc2cnc(N3CCNCC3)nc21 | – | inconclusive: 3.98 µM [activator, single point] |
| O=C(O[C@@H](C(=O)O)[C@@H](OC(=O)c1ccccc1)C(=O)O)c1ccccc1 | – | inconclusive: 5.62 µM [activator, single point] |
| NC(=S)N/N=C\c1ccccc1OCc1ccccc1 | – | inconclusive: 0.794 µM [activator, full curve, poor fit] |
| CCc1cc2c(=O)c(-c3nc4ccccc4n3C)c(CCCC(=O)O)oc2cc1OC(=O)C(C)(C)C | – | inconclusive: 35.5 µM [activator, single point] |
| COc1ccc(C(=O)OCCOc2ccccc2C(C)=O)c(O)c1 | – | inconclusive: 0.0089 µM [activator, full curve, poor fit] |
| COc1ccc(/C=C2\SC(=O)N(CC(=O)Nc3cccnc3)C2=O)cc1OC | – | inconclusive: 5.62 µM [activator, single point] |
| Cc1ccc(C(F)(F)F)cc1NC(N)=S | – | inconclusive: 35.5 µM [activator, single point] |
| CC(C)OC(=O)CSc1nnc(C2CCCCC2)n1N | inactive: -12.2% [at 10 µM] | – |
| Cc1cnc(C(=O)Nc2ccc(F)cc2)cn1 | inactive: -0.354% | – |
| CCNc1ncc2nc(-c3ccccc3)c(=O)n(Cc3cccc(OC)c3)c2n1 | – | inconclusive: 0.0056 µM [activator, full curve, poor fit] |
| O=c1c(O)c(-c2ccc(O)cc2O)oc2cc(O)cc(O)c12 | – | inconclusive: 891 nM [activator, single point] and inconclusive: 794 nM [activator, single point] |
